Assay results reported in US20170189504A1, “NOVEL PEPTIDES AND COMBINATION OF PEPTIDES FOR USE IN IMMUNOTHERAPY AGAINST VARIOUS CANCERS” (immatics biotechnologies GmbH, priority 2015, published 2017).

Test system: HLA-A*24
Assay: Identification and relative LC-MS quantitation of HLA-A*24-presented tumor-associated peptides on tissue samples (presentation profiles, Tables 14A, 14B, 16, FIG. 1)
Set-up: species or system human; key to Presentation score GC / Presentation score NSCLC / Presentation score PCA / Presentation score GB / Presentation score HCC / Presentation score RCC: specifically presented on tumors (++++); very highly over-presented on tumors compared to a panel of normal tissues (+++); highly over-presented on tumors compared to a panel of normal tissues (++); over-presented on tumors compared to a panel of normal tissues (+)
Conditions: for Presentation score GB / Presentation score NSCLC / Presentation score RCC / Presentation score GC / Presentation score PCA / Presentation score HCC: HLA-A*24 peptides; for Presentation score GB: glioblastoma (N = 18) vs panel of normal tissues (N = 70); for Presentation score NSCLC: non-small cell lung cancer (N = 91) vs panel of normal tissues (N = 70); for Presentation score RCC: renal cell carcinoma (N = 2) vs panel of normal tissues (N = 70); for Presentation score GC: gastric cancer (N = 44) vs panel of normal tissues (N = 70); for Presentation score PCA: prostate cancer (N = 40) vs panel of normal tissues (N = 70); for Presentation score HCC: hepatocellular carcinoma (N = 15) vs panel of normal tissues (N = 70)
[1] = Table 14A, HLA-A*24-binding tumor-associated peptides, cancer entities on which the peptide was found presented
[2] = HLA-A*24-binding peptides, additional cancer entities, GB = glioblastoma, HCC = hepatocellular carcinoma, NSCLC = non-small cell lung cancer, PCA = prostate cancer

Substance | Presentation score GB | Presentation score NSCLC | Presentation score RCC | Peptide Presentation on cancer entities [1] | Presentation score GC | Presentation score PCA | Peptide Presentation on cancer entities [2] | Presentation score HCC
159 (LYNKGFIYL; listed as Homo sapiens) [compound 159] | ++++ | ++++ | ++++ | GB, NSCLC, RCC |  |  |  | 
161 (IYLVSIPEL; listed as Homo sapiens) [compound 161] |  | ++++ |  | GC, NSCLC, PCA | ++++ | ++++ |  | 
163 (DYLKGLASF; listed as Homo sapiens) [compound 163] | ++++ | ++++ |  | GB, GC, NSCLC | ++++ |  | PCA | 
167 (NYINRILKL; listed as Homo sapiens) [compound 167] |  |  |  |  | ++++ |  | NSCLC | 
168 (KYQDILETI; listed as Homo sapiens) [compound 168] |  | ++++ |  | NSCLC, PCA |  | ++++ |  | 
169 (AYTLIAPNI; listed as Homo sapiens) [compound 169] |  | ++++ |  | GC, NSCLC, HCC | ++++ |  |  | ++++
172 (TYTTVPRVAF; listed as Homo sapiens) [compound 172] | ++++ |  | ++++ | GB, RCC |  |  |  | 
173 (IYSWILDHF; listed as Homo sapiens) [compound 173] |  | ++++ | ++++ | GC, NSCLC, HCC, RCC | ++++ |  |  | ++++
